In PubChem BioAssay AID504594 (Broad Institute, 2011):
Values joined by “and” are separate entries in the source; they are usually repeats but may differ in a detail not shown here. Equal values may be shown once. Hit rate of the full screen: of about 2,000 compounds, fewer than 10 were called active.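 Rule for the calls: active = growth inhibition of at least 75% in every replicate, which also brings the mean inhibition to 75% or more; inconclusive = mean inhibition 75% or more but some replicate under 75%; inactive = the rest.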 The list shows a part of the results.

Experiment: reduced viability of yeast carrying PfHsp90 – S. cerevisiae, BacTiter-Glo luminescence, antimalarial PfHsp90 inhibitor project, primary screen (AID 504594);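 note: 0% = DMSO neutral control wells and 100% = 20 µM radicicol control wells; higher value means stronger growth inhibition because the sign is flipped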
Conditions: S. cerevisiae expressing PfHsp90, BacTiter-Glo growth, 48 h; at 9.4 µM; hits give high values

| SMILES | growth inhibition |
| --- | --- |
| COc1ccc2c(CCNC(=O)c3ccc([N+](=O)[O-])cc3)c[nH]c2c1 | inactive: 6.57% |
| Cc1cccc(Oc2coc3cc(OC(=O)c4cncc(Br)c4)ccc3c2=O)c1 | inactive: -0.933% |
| COc1ccc2c(c1)CC[C@@H]1[C@@H]2CC[C@]2(C)C(=O)CC[C@@H]12 | inactive: -5.47% |
| OC(CCN1CCCCC1)(c1ccccc1)C1CCCCC1 (stereo unspecified) | inactive: -3.01% |
| O=C(CN1C(=O)C2CCc3[nH]c4ccccc4c3C2C1=O)N1CCCC1 (stereo unspecified) | inactive: -10.5% |
| CCOC(=O)c1cc2c(nc1N)CC(C)(CC)OC2 (stereo unspecified) | inactive: -2.94% |
| Nc1cc(-c2ccncc2)c[nH]c1=O | inactive: -1.29% |
| Cc1cccc(C2=N/C(=C\c3cccnc3)C(=O)O2)c1 | inactive: 10.1% |
| COc1ccc(C2C(C(=O)c3ccco3)=C(O)C(=O)N2CC2CCCO2)cc1 (stereo unspecified) | inactive: 7.74% |
| CS(=O)c1ccccc1O (stereo unspecified) | inactive: 14.9% |
| COC(=O)c1ccc(COc2ccc3c(C)c(C)c(=O)oc3c2C)o1 | inactive: -0.273% |
| CCCC(=O)Nc1ccccc1NC(C)=O | inactive: -6.63% |
| COc1ccc(CNC(=O)c2cc3c(=O)n4ccccc4nc3n(Cc3cccnc3)c2=N)cc1 | inactive: -25.2% |
| OCCOCCN1CCN(C(c2ccccc2)c2ccc(Cl)cc2)CC1 (stereo unspecified) | inactive: 1.21% |
| C[C@]12CCC(=O)C[C@@H]1CC[C@@H]1[C@@H]2CC[C@]2(C)C=CC[C@@H]12 | inactive: 8.79% |
| COc1ccc(OC)c(NC2=C(Cl)C(=O)N(Cc3ccccc3)C2=O)c1 | inactive: -7.45% |
| COc1ccc(CNC(=O)C2CCCN2C)cc1OC (stereo unspecified) | inactive: -16.4% |
| COc1ccccc1Oc1c(C)oc2c(CN3CCN(CCO)CC3)c(O)ccc2c1=O | inactive: 3.84% |
| COc1ccccc1N=CC1=C(O)CC(c2ccccc2)CC1=O (stereo unspecified) | inactive: 5.83% |
| CCOC(=O)[C@H](CCc1ccccc1)N[C@@H](C)C(=O)N1CCC[C@H]1C(=O)O | inactive: -1.47% |
| O=C(Nc1ccc(N2CCOCC2)cc1)c1ccc(-c2ccccc2[N+](=O)[O-])o1 | inactive: -30.5% |
| C[C@]12CC[C@@H]3c4ccc(O)cc4CC[C@H]3[C@@H]1C[C@@H](O)[C@@H]2O[C@@H]1O[C@H](C(=O)O)[C@@H](O)[C@H](O)[C@H]1O | inactive: -0.654% |
| Cc1ccc2c(c1)C1(C(=O)N2)N2CCCC2C(C(=O)c2ccc3ccccc3c2)C12C(=O)Nc1ccccc12 (stereo unspecified) | inactive: -4.22% |
| CC(C)=CCC/C(C)=C/CC/C(C)=C/CC/C(C)=C/CC1=C(C)C(=O)c2ccccc2C1=O | inactive: -2.7% |

| SMILES | growth inhibition |
| --- | --- |
| CCC(=O)Nc1ccc(C(=O)N2CCN(C(=O)c3ccco3)CC2)cc1 | inactive: -0.0205% |
| COC(=O)c1ccc(OCCCCN2CC(C)OC(C)C2)cc1 (stereo unspecified) | inactive: 23.6% |
| Cc1ccc2c(c1)C1OCCC1C1N2C(=O)C2C(C(=O)O)C3C=CC21O3 (stereo unspecified) | inactive: -2.86% |
| O=C(Nc1ccc(F)c([N+](=O)[O-])c1)c1ccc2c(c1)OCCO2 | inactive: -4.38% |
| CC(C)NS(=O)(=O)c1ccc(OCC(=O)Nc2cccc(F)c2)cc1 | inactive: 4.62% |
| CCOC(=O)C1(Cc2cccc(Cl)c2)CCCN(C2CCN(C(C)=O)CC2)C1 (stereo unspecified) | inactive: -10.8% |
| COC(=O)c1cc(-c2ccc(C)o2)nc2ccccc12 | inactive: -1.73% |
| CN(C)CC/C=C1\c2ccccc2COc2ccccc21 | inactive: 1.89% |
| CC1(C)c2ccccc2N2CC(=O)NC21/C=C/c1ccco1 (stereo unspecified) | inactive: -0.842% |
| CC(C)CCc1noc(CN2CCC(CCN3CCCC3=O)CC2)n1 | inactive: 4.25% |
| Cc1oc2c(C)c3oc(=O)c4c(c3cc2c1C)CCCC4 | inactive: 5.48% |
| CCCCC(=O)O[C@]1(C(=O)CO)CC[C@H]2[C@@H]3CCC4=CC(=O)CC[C@]4(C)[C@H]3[C@@H](O)C[C@@]21C | inactive: 2.16% |
| CCc1cccc2c3c([nH]c12)C(CC)(CC(=O)O)OCC3 (stereo unspecified) | inactive: 0.132% |
| COc1ccccc1C(O)c1nccn1C (stereo unspecified) | inactive: -25% |
| COc1ccc2c(c1)[N+](C)(C)C(C)(C)C=C2C | inactive: -3.15% |
| C#CCN1C(=O)C(O)(c2c(C)[nH]c3ccccc23)c2ccccc21 (stereo unspecified) | inactive: 3.95% |
| CN1[C@@H](CC(=O)c2ccccc2)CCC[C@H]1C[C@H](O)c1ccccc1 | inactive: -6.4% |
| c1ccc2[nH]c(-c3cscn3)nc2c1 | inactive: -6.85% |
| CCC(C)NCCOCCOc1ccc(Cl)cc1Br (stereo unspecified) | inactive: 15.6% |
| COc1cc(NC(=S)NN2CCN(C)CC2)cc(OC)c1OC | inactive: -13.7% |
| CC1=NN(C(=O)c2ccc(Br)cc2)C(O)(c2ccccc2)C1 (stereo unspecified) | inactive: -4.64% |
| CC12CC(c3ccccc3O1)C(C(=O)N1CCOCC1)C(=O)N2 (stereo unspecified) | inactive: -11.3% |
| O=C(c1ccc(Cl)cc1)C1CCCN(Cc2ccc(Oc3ncccn3)cc2)C1 (stereo unspecified) | inactive: -7.65% |
| O=C(OCCNC(=O)c1ccc2ccccc2n1)c1ccc(F)cc1 | inactive: -10% |

| SMILES | growth inhibition |
| --- | --- |
| CC(NC(=O)c1ccc(OC2CCN(Cc3ccccn3)CC2)cc1)c1ccccc1 (stereo unspecified) | inactive: -1.57% |
| COc1ccc(C)cc1S(=O)(=O)Nc1ccc(F)cc1 | inactive: 1.39% |
| O=C(OCCN1CCCC1)C1(c2ccccc2)CCCC1 | inactive: -2.1% |
| CC(C)=CCCC(C)CN1CCC(N2CCC(C(=O)N3CCCC3)CC2)CC1 (stereo unspecified) | inactive: -1.55% |
| COC(=O)c1ccc(NC(=O)C23CCC(C)(C(=O)O2)C3(C)C)cc1 (stereo unspecified) | inactive: 9.07% |
| C[C@]12CC[C@@H]3c4ccc(O)cc4CC[C@H]3[C@@H]1CCC2=O | inactive: 0.229% |
| OC(C#CCN1CCCC1)(c1ccccc1)c1cccnc1 (stereo unspecified) | inactive: -0.115% |
| CN=C1c2cc3cc(OC)ccc3n2CCN1C | inactive: 2.8% |
| Cc1cccc(CN2CCN(C(c3ccccc3)c3ccc(Cl)cc3)CC2)c1 (stereo unspecified) | inactive: -15.4% |
| COC1CCCCC1Nc1ccc(C)c(C)c1 (stereo unspecified) | inactive: 5.91% |
| COCCn1c(/C=C/c2ccccc2)nc2ccccc21 | inactive: -5.73% |
| CC1CNCCN1S(=O)(=O)c1cccc2cnccc12 (stereo unspecified) | inactive: -3.57% |
| CCOC(=O)C1=C[C@]2(CC)CCCN3CCc4c(n1c1ccccc41)[C@@H]32 | inactive: 11.2% |
| Cc1ccc2c(c1)C(C)(C)[C@]1(C)NC(=O)CCN21 | inactive: -7.32% |
| CC(=O)OC1c2c(ccc3ccc(=O)oc23)OC(C)(C)C1OC(=O)CC(C)C (stereo unspecified) | inactive: -3.94% |
| CCOC(=O)c1c(C)oc2c1C(=O)c1ccccc1C2=O | inactive: -0.693% |
| O=C(CN1CC[n+]2c(-c3cccs3)csc21)c1ccc(Br)cc1 | inactive: -7.32% |
| Cc1ccccc1NC(=O)C1c2ccccc2Oc2ccccc21 | inactive: 0.0755% |
| Cc1ccc(C(CC(=O)NCc2ccco2)c2ccc(OC(C)C)cc2)cc1 (stereo unspecified) | inactive: 19.3% |
| CCCCOc1cc(C(=O)NCCN(CC)CC)c2ccccc2n1 | inactive: 7.6% and inactive: 11.3% |
| COc1cccc(CC2CC(=O)N(c3ccc4c(C)cc(=O)oc4c3)C2=O)c1 (stereo unspecified) | inactive: 0.322% |
| O=C1CCc2cc(OCCCCc3nnnn3C3CCCCC3)ccc2N1 | inactive: 4.02% |
| CCS(=O)(=O)CCn1c([N+](=O)[O-])cnc1C | inactive: -11.7% |
| C(=C\c1ccc2ccccc2n1)/c1ccccc1 | inactive: -1.38% |

Entries above containing a carbonyl joined to an NH by a bond outside any ring:

| SMILES | growth inhibition |
| --- | --- |
| COc1ccc2c(CCNC(=O)c3ccc([N+](=O)[O-])cc3)c[nH]c2c1 | inactive: 6.57% |
| CCCC(=O)Nc1ccccc1NC(C)=O | inactive: -6.63% |
| COc1ccc(CNC(=O)c2cc3c(=O)n4ccccc4nc3n(Cc3cccnc3)c2=N)cc1 | inactive: -25.2% |
| COc1ccc(CNC(=O)C2CCCN2C)cc1OC (stereo unspecified) | inactive: -16.4% |
| O=C(Nc1ccc(N2CCOCC2)cc1)c1ccc(-c2ccccc2[N+](=O)[O-])o1 | inactive: -30.5% |
| CCC(=O)Nc1ccc(C(=O)N2CCN(C(=O)c3ccco3)CC2)cc1 | inactive: -0.0205% |
| O=C(Nc1ccc(F)c([N+](=O)[O-])c1)c1ccc2c(c1)OCCO2 | inactive: -4.38% |
| CC(C)NS(=O)(=O)c1ccc(OCC(=O)Nc2cccc(F)c2)cc1 | inactive: 4.62% |
| O=C(OCCNC(=O)c1ccc2ccccc2n1)c1ccc(F)cc1 | inactive: -10% |
| CC(NC(=O)c1ccc(OC2CCN(Cc3ccccn3)CC2)cc1)c1ccccc1 (stereo unspecified) | inactive: -1.57% |
| COC(=O)c1ccc(NC(=O)C23CCC(C)(C(=O)O2)C3(C)C)cc1 (stereo unspecified) | inactive: 9.07% |
| Cc1ccccc1NC(=O)C1c2ccccc2Oc2ccccc21 | inactive: 0.0755% |
| Cc1ccc(C(CC(=O)NCc2ccco2)c2ccc(OC(C)C)cc2)cc1 (stereo unspecified) | inactive: 19.3% |
| CCCCOc1cc(C(=O)NCCN(CC)CC)c2ccccc2n1 | inactive: 7.6% and inactive: 11.3% |

Continued.

| SMILES | growth inhibition |
| --- | --- |
| c1cc(-c2ccncc2)ccn1 | inactive: 9.23% |
| Cc1csc(CCc2nc(C)cs2)n1 | inactive: 0.825% |
| O=C(Oc1ccc2c3c(c(=O)oc2c1)CCCC3)c1ccco1 | inactive: -14.3% |
| COc1ccc(-c2c(C)c3ccc(OCC(C)=O)cc3oc2=O)cc1 | inactive: 11.9% |
| CN1CC2CCCC3(C1)C(=O)NC1(CCCCC1)N=C23 (stereo unspecified) | inactive: -13.6% |
| O=C(/C=C/c1ccc2c(c1)OCO2)NCc1ccc(F)cc1 | inactive: -4.35% |
| COc1ccc(-c2cc(C(=O)N3CCOCC3)c3cc(C)ccc3n2)cc1 | inactive: -5.28% |
| Cc1nnc(SCC(=O)N2CCCC(C(=O)c3ccc(Cl)cc3)C2)o1 (stereo unspecified) | inactive: -4.32% |
| Cc1ccc(C(=O)NCCNC(=O)c2ccccc2)cc1 | inactive: 8.92% |
| CC(=O)Nc1cc(O)cc(O)c1 | inactive: 8.04% |
| CNCCC(Oc1ccc(C(F)(F)F)cc1)c1ccccc1 (stereo unspecified) | inactive: 0.953% |
| COc1ccc2nc(NC(=O)Nc3ccccc3)sc2c1 | inactive: -1.88% |
| COC(=O)c1cc(OC)c(OC)c(OC)c1[N+](=O)[O-] | inactive: 4% |
| C[C@]12CC[C@@H]3c4cc(O)c(O)cc4CC[C@H]3[C@@H]1CC[C@@H]2O | inactive: 28.5% |
| COc1cccc2c(O)cc(=O)n(C)c12 | inactive: 7.56% |
| CCCCNC(=O)NS(=O)(=O)c1ccc(C)cc1 | inactive: 0.0257% |
| CC(=O)[C@H]1CC[C@H]2[C@@H]3C[C@H](C)C4=CC(=O)CC[C@]4(C)[C@H]3[C@@H](O)C[C@]12C | inactive: 0.129% |
| CC(C)CC1c2[nH]c3ccccc3c2CCN1C(=O)CCC(=O)N(C)C (stereo unspecified) | inactive: -3.21% |
| CC(=O)N1c2ccccc2C(C)=CC1(C)C | inactive: 8.72% |
| CCOCc1cc(C)[nH]c(=O)c1C#N | inactive: 0.203% |
| O=C(CCC(=O)c1cccs1)c1cccs1 | inactive: 11% |
| O=C1c2ccccc2C2(c3ccccc3)NCCN12 (stereo unspecified) | inactive: -0.371% |
| Cc1ccc(/C=N/Nc2nc(C(C)(C)C)cs2)o1 | inactive: 0.411% |
| CC(=O)c1cccc2c(O)c(C3=Nc4ccccc4C3=O)[nH]c12 | inactive: 19.7% |

Single values from above:
growth inhibition, `CCOCc1cc(C)[nH]c(=O)c1C#N` is entered as inactive: 0.203%
growth inhibition, `C#CCN1C(=O)C(O)(c2c(C)[nH]c3ccccc23)c2ccccc21` (stereo unspecified) is entered as inactive: 3.95%
